At least one structure is not confirmed: it was looked up by name or label, or the drawing left a doubt.
Target: bacterial AGPPase (Escherichia coli, UniProt Q93K97, L2V/N6S)
Assay type: biochemical

Sequences of proteins named here, by UniProt entry; tags and fusion partners are left off.
UniProt Q93K97, whole entry L2V/N6S: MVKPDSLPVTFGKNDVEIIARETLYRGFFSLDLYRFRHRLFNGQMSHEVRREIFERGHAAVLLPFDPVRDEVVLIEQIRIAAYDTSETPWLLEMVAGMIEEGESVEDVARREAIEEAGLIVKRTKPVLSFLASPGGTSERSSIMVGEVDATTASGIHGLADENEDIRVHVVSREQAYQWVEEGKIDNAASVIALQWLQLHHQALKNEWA

Row | Compound | AGPPase activity affected by reducing and chelating agents
1 | O=C1O[C@H]([C@@H](O)CO)C(O)=C1O [ascorbate] | adversely affected
2 | N[C@@H](CC(=O)O)C(=O)O [aspartate] | adversely affected
